According to the supplement of paper PMC12067093, “Discovery and optimisation of a covalent ligand for TRIM25 and its application to targeted protein ubiquitination” (Chemical Science, 2025):
This is one part of the list.

By UniProt entry, the sequences of proteins in these tests, tags left out. Where a name states a change or a piece, a line headed by the entry shows the natural chain unless it says otherwise.
UniProt Q8NHU6: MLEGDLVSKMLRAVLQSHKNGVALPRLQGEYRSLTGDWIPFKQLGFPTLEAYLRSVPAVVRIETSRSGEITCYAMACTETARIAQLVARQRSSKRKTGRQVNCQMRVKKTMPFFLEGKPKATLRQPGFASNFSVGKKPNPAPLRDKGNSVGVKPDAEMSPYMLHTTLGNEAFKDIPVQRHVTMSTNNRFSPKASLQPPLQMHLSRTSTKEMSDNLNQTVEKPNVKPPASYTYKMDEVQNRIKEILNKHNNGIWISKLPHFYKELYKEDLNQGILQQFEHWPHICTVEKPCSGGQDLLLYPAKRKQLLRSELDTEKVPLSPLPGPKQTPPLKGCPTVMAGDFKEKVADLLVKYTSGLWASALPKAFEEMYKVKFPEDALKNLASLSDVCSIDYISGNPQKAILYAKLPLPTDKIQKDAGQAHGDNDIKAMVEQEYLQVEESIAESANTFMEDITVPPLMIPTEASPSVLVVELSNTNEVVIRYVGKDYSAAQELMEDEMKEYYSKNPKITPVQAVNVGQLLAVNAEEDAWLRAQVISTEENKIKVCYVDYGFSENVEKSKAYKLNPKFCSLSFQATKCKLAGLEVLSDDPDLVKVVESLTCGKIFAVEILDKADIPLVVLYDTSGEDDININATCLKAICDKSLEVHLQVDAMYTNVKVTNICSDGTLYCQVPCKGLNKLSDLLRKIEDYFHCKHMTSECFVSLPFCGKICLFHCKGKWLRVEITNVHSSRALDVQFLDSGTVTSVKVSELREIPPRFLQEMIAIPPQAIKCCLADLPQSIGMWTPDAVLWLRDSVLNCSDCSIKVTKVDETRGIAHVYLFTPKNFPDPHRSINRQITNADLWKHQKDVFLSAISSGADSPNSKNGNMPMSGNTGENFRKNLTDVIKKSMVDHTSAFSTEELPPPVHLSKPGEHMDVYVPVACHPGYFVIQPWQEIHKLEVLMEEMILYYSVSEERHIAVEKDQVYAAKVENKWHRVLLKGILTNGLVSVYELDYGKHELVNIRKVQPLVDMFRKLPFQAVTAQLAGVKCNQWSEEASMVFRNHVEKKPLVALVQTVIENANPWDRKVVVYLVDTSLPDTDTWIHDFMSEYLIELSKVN
UniProt Q6YHU6: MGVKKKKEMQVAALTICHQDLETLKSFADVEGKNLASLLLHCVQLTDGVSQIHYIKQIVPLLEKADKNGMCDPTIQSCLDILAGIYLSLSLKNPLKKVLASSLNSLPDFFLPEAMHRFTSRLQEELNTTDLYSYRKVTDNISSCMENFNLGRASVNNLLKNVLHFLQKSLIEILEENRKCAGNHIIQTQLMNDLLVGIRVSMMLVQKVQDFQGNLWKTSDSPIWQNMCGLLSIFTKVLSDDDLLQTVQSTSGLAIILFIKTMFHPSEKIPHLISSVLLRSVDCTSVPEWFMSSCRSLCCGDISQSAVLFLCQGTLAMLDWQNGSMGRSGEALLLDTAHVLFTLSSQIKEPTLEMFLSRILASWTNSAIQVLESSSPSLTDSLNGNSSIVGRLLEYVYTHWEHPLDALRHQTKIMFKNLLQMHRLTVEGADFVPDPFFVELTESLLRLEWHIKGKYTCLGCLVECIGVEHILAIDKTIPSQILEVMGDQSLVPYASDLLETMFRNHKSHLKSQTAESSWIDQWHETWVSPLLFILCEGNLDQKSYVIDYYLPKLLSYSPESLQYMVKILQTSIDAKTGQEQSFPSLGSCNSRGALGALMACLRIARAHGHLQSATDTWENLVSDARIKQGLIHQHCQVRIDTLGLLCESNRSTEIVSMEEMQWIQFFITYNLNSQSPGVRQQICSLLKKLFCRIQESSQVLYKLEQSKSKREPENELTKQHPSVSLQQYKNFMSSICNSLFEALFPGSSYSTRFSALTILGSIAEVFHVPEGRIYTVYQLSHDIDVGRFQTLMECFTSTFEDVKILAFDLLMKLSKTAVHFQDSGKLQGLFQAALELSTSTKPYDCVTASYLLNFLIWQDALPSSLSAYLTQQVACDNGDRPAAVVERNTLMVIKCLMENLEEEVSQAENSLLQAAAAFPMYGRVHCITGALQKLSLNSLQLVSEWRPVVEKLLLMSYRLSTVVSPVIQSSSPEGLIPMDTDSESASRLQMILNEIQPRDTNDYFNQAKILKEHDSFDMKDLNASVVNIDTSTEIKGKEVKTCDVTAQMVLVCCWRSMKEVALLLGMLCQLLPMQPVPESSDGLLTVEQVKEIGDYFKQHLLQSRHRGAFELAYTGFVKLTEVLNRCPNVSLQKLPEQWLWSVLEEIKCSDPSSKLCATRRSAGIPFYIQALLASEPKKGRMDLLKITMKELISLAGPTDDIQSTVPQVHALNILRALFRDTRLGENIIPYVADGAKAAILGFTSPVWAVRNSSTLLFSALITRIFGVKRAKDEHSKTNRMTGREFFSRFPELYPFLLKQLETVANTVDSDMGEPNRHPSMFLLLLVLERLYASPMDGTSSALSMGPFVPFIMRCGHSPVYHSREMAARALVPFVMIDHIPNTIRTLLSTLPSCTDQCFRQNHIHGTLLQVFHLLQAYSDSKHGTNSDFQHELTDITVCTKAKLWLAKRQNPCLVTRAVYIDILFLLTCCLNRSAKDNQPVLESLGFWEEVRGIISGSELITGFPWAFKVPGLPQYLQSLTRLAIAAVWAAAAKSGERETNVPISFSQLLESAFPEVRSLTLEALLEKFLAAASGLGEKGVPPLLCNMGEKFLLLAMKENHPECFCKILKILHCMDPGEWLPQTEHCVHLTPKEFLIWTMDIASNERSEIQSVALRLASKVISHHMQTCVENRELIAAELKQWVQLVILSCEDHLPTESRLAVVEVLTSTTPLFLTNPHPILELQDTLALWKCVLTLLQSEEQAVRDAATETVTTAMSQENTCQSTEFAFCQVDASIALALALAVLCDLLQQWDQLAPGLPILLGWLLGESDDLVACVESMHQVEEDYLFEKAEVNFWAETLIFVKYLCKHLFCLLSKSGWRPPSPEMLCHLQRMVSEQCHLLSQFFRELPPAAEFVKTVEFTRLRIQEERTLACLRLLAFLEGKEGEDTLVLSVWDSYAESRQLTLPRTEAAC
UniProt Q9NXG2: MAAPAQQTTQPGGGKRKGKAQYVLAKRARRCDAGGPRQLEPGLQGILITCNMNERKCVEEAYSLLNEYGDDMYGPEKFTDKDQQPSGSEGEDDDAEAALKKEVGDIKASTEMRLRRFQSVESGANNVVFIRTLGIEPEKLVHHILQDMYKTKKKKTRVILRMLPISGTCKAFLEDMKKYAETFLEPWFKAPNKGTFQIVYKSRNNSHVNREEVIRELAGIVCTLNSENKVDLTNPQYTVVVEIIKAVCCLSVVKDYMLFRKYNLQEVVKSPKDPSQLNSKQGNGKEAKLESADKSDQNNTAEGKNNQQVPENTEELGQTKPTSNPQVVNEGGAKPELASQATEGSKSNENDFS
UniProt Q9UGI8: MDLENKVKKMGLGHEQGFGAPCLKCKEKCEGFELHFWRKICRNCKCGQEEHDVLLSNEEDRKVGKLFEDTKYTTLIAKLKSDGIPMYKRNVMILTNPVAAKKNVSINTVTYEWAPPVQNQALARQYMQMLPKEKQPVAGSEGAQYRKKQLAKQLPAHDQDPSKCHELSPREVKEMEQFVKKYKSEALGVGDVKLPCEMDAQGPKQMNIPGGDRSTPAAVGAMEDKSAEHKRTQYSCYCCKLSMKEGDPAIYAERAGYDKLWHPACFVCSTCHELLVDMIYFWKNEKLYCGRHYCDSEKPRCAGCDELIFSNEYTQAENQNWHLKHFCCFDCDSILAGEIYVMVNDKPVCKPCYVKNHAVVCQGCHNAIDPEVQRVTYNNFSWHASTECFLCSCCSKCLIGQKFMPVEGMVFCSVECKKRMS
UniProt Q96J01: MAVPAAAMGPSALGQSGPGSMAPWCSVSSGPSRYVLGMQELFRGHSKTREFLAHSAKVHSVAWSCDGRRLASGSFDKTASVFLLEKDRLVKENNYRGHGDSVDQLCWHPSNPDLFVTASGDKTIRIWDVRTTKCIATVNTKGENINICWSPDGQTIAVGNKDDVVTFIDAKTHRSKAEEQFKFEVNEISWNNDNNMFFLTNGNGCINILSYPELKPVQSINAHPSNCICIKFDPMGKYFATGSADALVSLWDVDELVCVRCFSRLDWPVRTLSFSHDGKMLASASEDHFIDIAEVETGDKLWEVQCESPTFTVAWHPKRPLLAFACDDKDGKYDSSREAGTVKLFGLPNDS
UniProt Q13769: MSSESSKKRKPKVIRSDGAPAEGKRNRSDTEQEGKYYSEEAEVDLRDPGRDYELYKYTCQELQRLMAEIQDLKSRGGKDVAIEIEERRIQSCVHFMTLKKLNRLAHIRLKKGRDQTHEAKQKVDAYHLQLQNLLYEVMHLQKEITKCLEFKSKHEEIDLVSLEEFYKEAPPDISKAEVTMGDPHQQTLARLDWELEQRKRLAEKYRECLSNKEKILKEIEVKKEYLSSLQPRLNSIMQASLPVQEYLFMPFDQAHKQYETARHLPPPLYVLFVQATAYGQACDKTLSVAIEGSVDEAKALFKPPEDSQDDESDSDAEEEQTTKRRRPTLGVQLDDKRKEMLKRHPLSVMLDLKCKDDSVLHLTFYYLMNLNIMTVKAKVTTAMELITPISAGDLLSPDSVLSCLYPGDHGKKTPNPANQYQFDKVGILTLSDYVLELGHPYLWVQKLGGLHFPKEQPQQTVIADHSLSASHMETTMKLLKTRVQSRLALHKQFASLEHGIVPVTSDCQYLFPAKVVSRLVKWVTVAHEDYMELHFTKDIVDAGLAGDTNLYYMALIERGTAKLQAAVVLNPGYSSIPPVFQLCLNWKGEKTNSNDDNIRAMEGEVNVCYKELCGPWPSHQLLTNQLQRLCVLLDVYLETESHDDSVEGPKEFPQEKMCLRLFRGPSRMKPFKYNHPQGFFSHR
UniProt Q9UBB9: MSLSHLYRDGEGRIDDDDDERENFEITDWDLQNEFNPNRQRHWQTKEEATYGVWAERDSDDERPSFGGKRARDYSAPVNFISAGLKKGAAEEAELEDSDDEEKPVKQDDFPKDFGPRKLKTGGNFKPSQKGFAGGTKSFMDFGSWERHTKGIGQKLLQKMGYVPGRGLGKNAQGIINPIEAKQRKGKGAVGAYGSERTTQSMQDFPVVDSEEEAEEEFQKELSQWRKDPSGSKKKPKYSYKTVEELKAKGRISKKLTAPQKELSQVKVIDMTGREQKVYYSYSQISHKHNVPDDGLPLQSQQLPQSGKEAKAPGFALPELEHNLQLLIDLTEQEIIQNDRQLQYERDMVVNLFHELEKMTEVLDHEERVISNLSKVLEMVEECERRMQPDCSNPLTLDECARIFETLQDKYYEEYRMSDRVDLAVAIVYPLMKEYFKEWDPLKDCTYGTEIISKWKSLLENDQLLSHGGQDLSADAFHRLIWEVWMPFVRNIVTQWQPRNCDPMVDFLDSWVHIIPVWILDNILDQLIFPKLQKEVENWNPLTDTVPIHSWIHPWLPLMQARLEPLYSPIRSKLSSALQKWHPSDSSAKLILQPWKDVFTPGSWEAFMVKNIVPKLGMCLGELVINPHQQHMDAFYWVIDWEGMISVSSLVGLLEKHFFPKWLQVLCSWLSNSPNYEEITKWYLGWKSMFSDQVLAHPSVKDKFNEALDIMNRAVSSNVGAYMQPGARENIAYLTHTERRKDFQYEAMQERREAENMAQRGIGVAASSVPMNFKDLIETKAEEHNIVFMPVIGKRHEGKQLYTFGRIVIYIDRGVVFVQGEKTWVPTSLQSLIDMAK
UniProt Q5JUR7: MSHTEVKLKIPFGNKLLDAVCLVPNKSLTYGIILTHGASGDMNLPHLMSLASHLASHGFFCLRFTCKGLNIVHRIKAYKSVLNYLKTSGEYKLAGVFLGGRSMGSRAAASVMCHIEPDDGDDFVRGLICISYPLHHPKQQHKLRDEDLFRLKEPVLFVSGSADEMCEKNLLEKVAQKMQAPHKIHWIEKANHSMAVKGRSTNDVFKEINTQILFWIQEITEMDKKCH
UniProt Q9Y5J7: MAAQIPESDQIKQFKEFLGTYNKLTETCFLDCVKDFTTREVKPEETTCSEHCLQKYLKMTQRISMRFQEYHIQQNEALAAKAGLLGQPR
UniProt P62072: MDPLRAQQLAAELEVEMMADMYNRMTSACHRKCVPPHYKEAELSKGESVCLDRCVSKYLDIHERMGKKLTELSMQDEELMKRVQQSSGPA
UniProt Q6PIY7: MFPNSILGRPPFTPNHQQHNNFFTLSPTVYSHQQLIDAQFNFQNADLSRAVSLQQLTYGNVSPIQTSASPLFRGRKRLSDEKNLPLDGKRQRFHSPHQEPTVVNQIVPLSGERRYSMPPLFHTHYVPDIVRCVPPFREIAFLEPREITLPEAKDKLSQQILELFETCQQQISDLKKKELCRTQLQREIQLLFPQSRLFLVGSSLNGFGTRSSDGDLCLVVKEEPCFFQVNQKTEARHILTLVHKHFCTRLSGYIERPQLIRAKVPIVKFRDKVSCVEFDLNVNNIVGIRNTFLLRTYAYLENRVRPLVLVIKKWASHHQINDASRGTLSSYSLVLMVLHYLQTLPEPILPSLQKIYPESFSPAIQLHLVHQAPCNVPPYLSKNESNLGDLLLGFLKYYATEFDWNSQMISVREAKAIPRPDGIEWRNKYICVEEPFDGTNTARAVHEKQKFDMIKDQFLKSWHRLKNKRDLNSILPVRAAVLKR

Compound: Cc1cc(ccc1-c1ccccc1)C(=O)N1CCCN(CC1)C(=O)CCl [compound 10]
Assay: probe-labelled cysteine peptide fold change vs DMSO (competition) (log2 fold change); higher = less target engagement (more negative = stronger competition)
Conditions: THP-1, incubation time: 4 h
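Further: competitive profiling in live THP-1 cells: cysteine peptides tagged with an iodoacetamide desthiobiotin (IA-DTB) probe, intensity after compound treatment relative to DMSO-treated cells.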

| Target | probe-labelled cysteine peptide fold change (10 µM) | probe-labelled cysteine peptide fold change (50 µM) |
| --- | --- | --- |
| THOC1_Q96FV9_156_SQNTVFCGR (UniProt Q96FV9) | -0.364 | 0.123 |
| THTPA_Q9BU02_66_CPGAAGVLGPHTEYK (UniProt Q9BU02) | -0.0742 | -0.142 |
| THOC2_Q8NI27_853_YITSCEMVMAPVHEAVVSLHVSK (UniProt Q8NI27) | -0.0135 | 0.0424 |
| TDRD7_Q8NHU6_692_KIEDYFHCK (UniProt Q8NHU6) | -0.133 | -0.707 |
| THADA_Q6YHU6_180_CAGNHIIQTQLMNDLLVGIR (UniProt Q6YHU6) | -0.207 | 0.0834 |
| THUMPD1_Q9NXG2_248_AVCCLSVVK (UniProt Q9NXG2) | -0.065 | 0.273 |
| TLN1_Q9Y490_2243_ECANGYLELLDHVLLTLQK (UniProt Q9Y490) | 0.169 | 0.303 |
| TES_Q9UGI8_412+416_FMPVEGMVFCSVECK (UniProt Q9UGI8) | -0.248 | -0.434 |
| THOC3_Q96J01_65_VHSVAWSCDGR (UniProt Q96J01) | -0.0273 | 0.188 |
| TDRD7_Q8NHU6_77_SGEITCYAMACTETAR (UniProt Q8NHU6) | -0.0811 | -1.42 |
| THG1L_Q9NWX6_51_DFEADDTCLAHCWVVVR (UniProt Q9NWX6) | 0.048 | 0.143 |
| TLN1_Q9Y490_1045_AQEACGPLEMDSALSVVQNLEK (UniProt Q9Y490) | 0.325 | 0.22 |
| TIMM10B_Q9Y5J6_48+52_ALDAEEEACLHSCAGK (UniProt Q9Y5J6) | 0.0977 | -0.275 |
| THEMIS2_Q5TEJ8_410_LSDQAGEDEEEECKEEAESPER (UniProt Q5TEJ8) | 0.242 | -0.158 |
| TGFB1I1_O43294_231_GLCGSCNKPIAGQVVTALGR (UniProt O43294) | 0.054 | -0.154 |
| THOC1_Q96FV9_396_NEGCPSFVK (UniProt Q96FV9) | -0.137 | -0.0773 |
| TES_Q9UGI8_361_NHAVVCQGCHNAIDPEVQR (UniProt Q9UGI8) | -0.0444 | -0.27 |
| THOC5_Q13769_59_YTCQELQR (UniProt Q13769) | 0.148 | 0.198 |
| TFIP11_Q9UBB9_383_VLEMVEECERR (UniProt Q9UBB9) | 0.00917 | -0.119 |
| TKFC_Q3LXA3_155_GLCGTVLIHK (UniProt Q3LXA3) | 0.104 | -0.0404 |
| THEM6_Q8WUY1_104_AHTVLAASCAR (UniProt Q8WUY1) | -0.0518 | -0.228 |
| TEPSIN_Q96N21_463_RGPSSCAWSR (UniProt Q96N21) | -0.249 | -0.514 |
| TDRD7_Q8NHU6_284_ELYKEDLNQGILQQFEHWPHICTVEK (UniProt Q8NHU6) | -0.238 | -0.685 |
| TLN1_Q9Y490_1939_AGALQCSPSDAYTK (UniProt Q9Y490) | -0.263 | -0.0687 |
| TFIP11_Q9UBB9_383_VLEMVEECER (UniProt Q9UBB9) | 0.13 | 0.19 |
| TDG_Q13569_162_CLFMSGLSEVQLNHMDDHTLPGK (UniProt Q13569) | -0.0395 | -0.495 |

| Target | probe-labelled cysteine peptide fold change (10 µM) | probe-labelled cysteine peptide fold change (50 µM) |
| --- | --- | --- |
| TDP1_Q9NUW8_135_TENHGAPACHR (UniProt Q9NUW8) | -0.175 | -0.466 |
| TIMM29_Q9BSF4_182_DCDINDDEFLHLPAHLR (UniProt Q9BSF4) | -0.0425 | 0.314 |
| TFCP2_Q12800_369_DDVIQICGPADGIR (UniProt Q12800) | 0.00967 | 0.0734 |
| TLN1_Q9Y490_1363_ECDNALRELETVR (UniProt Q9Y490) | -0.431 | -1 |
| THUMPD1_Q9NXG2_31_CDAGGPR (UniProt Q9NXG2) | 0.347 | 1.08 |
| TEX30_Q5JUR7_166_LKEPVLFVSGSADEMCEK (UniProt Q5JUR7) | -0.163 | -0.222 |
| TGFBR1_P36897_101_TGSVTTTYCCNQDHCNK (UniProt P36897) | -0.187 | -0.398 |
| THOC1_Q96FV9_226_HTEDREEGMDVEEGEMGDEEAPTTCSIPIDYNLYR (UniProt Q96FV9) | -0.14 | -0.258 |
| TIMM9_Q9Y5J7_52_EVKPEETTCSEHCLQK (UniProt Q9Y5J7) | -0.00139 | 0.164 |
| TKFC_Q3LXA3_404_AAGDGDCGTTHSR (UniProt Q3LXA3) | -0.0749 | 0.0509 |
| THEMIS2_Q5TEJ8_355_DCEGEREENPEFTSLAVGDR (UniProt Q5TEJ8) | -0.0936 | 0.194 |
| THUMPD3_Q9BV44_2_CDIEEATNQLLDVNLHENQK (UniProt Q9BV44) | -0.202 | -0.0119 |
| TIMP3_P35625_184_HYACIR (UniProt P35625) | 0.0581 | 0.165 |
| THOP1_P52888_644_SCILRPGGSEDASAMLR (UniProt P52888) | -0.0261 | -0.0159 |
| TGFBRAP1_Q8WUH2_582_NSFNPDDIINCLK (UniProt Q8WUH2) | 0.0838 | 0.168 |
| THOP1_P52888_18_MKPPAACAGDMADAASPCSVVNDLR (UniProt P52888) | -0.386 | -0.66 |
| TIMM10_P62072_29_MTSACHR (UniProt P62072) | 0.144 | 0.268 |
| THOC5_Q13769_282_HLPPPLYVLFVQATAYGQACDK (UniProt Q13769) | 0.435 | 1.48 |
| TDRKH_Q9Y2W6_109_VLLISGFPVQVCK (UniProt Q9Y2W6) | -0.429 | -0.927 |
| THOP1_P52888_246_VEEAFNCR (UniProt P52888) | -0.163 | 0.0946 |
| TLN1_Q9Y490_1671_DKAPGQLECETAIAALNSCLR (UniProt Q9Y490) | -0.034 | -0.408 |
| TFRC_P02786_363_TDSTCR (UniProt P02786) | -0.171 | -0.13 |
| THOC2_Q8NI27_1111_ASVHCLETGEYTHIR (UniProt Q8NI27) | -0.216 | 0.5 |
| TK1_P04183_230_LFAPQQILQCSPAN (UniProt P04183) | -0.0215 | -0.165 |
| TDRD7_Q8NHU6_290_PCSGGQDLLLYPAK (UniProt Q8NHU6) | -0.138 | -0.828 |
| THAP12_O43422_230_RFETTAVNTLFCSK (UniProt O43422) | -0.0392 | -0.0496 |

Full records, quoted from the list. Values in the order: probe-labelled cysteine peptide fold change (10 µM)	probe-labelled cysteine peptide fold change (50 µM)
TIMM9_Q9Y5J7_52_EVKPEETTCSEHCLQK (UniProt Q9Y5J7) as listed: -0.00139	0.164
TKFC_Q3LXA3_404_AAGDGDCGTTHSR (UniProt Q3LXA3) as listed: -0.0749	0.0509
TIMM10_P62072_29_MTSACHR (UniProt P62072) as listed: 0.144	0.268

(cont.)

| Target | probe-labelled cysteine peptide fold change (10 µM) | probe-labelled cysteine peptide fold change (50 µM) |
| --- | --- | --- |
| THOP1_P52888_682_GLQVGGCEPEPQVC (UniProt P52888) | -0.241 | -0.0328 |
| TGS1_Q96RS0_357_ECPASGQSEPR (UniProt Q96RS0) | -0.00223 | 0.216 |
| THUMPD3_Q9BV44_239_HCFTSNEAAR (UniProt Q9BV44) | -0.116 | -0.17 |
| TGFBR1_P36897_71_VIHNSMCIAEIDLIPR (UniProt P36897) | 0.188 | 0.0551 |
| TET3_O43151_1381_GKPWSPCK (UniProt O43151) | -0.379 | -1.3 |
| TELO2_Q9Y4R8_367_AVLICLAQLGEPELR (UniProt Q9Y4R8) | -0.267 | 0.0442 |
| TJAP1_Q5JTD0_350_NSPLPNCTYATR (UniProt Q5JTD0) | -0.147 | -0.739 |
| THOP1_P52888_231_CHVPETR (UniProt P52888) | -0.0874 | -0.0527 |
| THBS1_P07996_318_RPPLCYHNGVQYR (UniProt P07996) | -0.232 | -0.379 |
| TK1_P04183_79_NTMEALPACLLR (UniProt P04183) | 0.13 | 0.0745 |
| THADA_Q6YHU6_1605_ENHPECFCK (UniProt Q6YHU6) | -0.00737 | 0.033 |
| THOC5_Q13769_507_QFASLEHGIVPVTSDCQYLFPAK (UniProt Q13769) | -0.142 | -0.011 |
| THOP1_P52888_246_RKVEEAFNCR (UniProt P52888) | -0.0672 | -0.292 |
| TDRD7_Q8NHU6_72_SGEITCYAMACTETAR (UniProt Q8NHU6) | 0.11 | -1.02 |
| THOC3_Q96J01_65_VHSVAWSCDGRR (UniProt Q96J01) | 0.00382 | -0.116 |
| TKT_P29401_42_ISSIQATTAAGSGHPTSCCSAAEIMAVLFFHTMR (UniProt P29401) | -0.207 | -0.178 |
| TENT2_Q6PIY7_431_YICVEEPFDGTNTAR (UniProt Q6PIY7) | -0.203 | 0.261 |
| TLN1_Q9Y490_1353_AVTDSINQLITMCTQQAPGQK (UniProt Q9Y490) | 0.11 | 0.156 |
| THOC2_Q8NI27_986_CIFSAIDAVYCAR (UniProt Q8NI27) | -0.0289 | 0.00569 |
| TEX30_Q5JUR7_21_LLDAVCLVPNK (UniProt Q5JUR7) | -0.0748 | 0.192 |
| TIAL1_Q01085_51_MITEHTSNDPYCFVEFYEHR (UniProt Q01085) | -0.0244 | -0.0448 |
| TEX30_Q5JUR7_166_EPVLFVSGSADEMCEK (UniProt Q5JUR7) | -0.247 | 0.0431 |
| TLN1_Q9Y490_1927_VQELGHGCAALVTK (UniProt Q9Y490) | 0.117 | -0.0163 |
| TCP1_P17987_236_IACLDFSLQK (UniProt P17987) | 0.107 | 0.172 |
| TENT2_Q6PIY7_374_IYPESFSPAIQLHLVHQAPCNVPPYLSK (UniProt Q6PIY7) | 0.0187 | -0.189 |
| TERF2IP_Q9NYB0_54_LSTLILHGGGTVCR (UniProt Q9NYB0) | -0.0408 | -0.125 |
